The other results are listed elsewhere or left out. The main result of the screen is listed elsewhere. These columns were measured beside it and carry no call. Compounds called inactive in the main read-out are mostly missing here. Potencies come from curve fits of mixed quality, noted in brackets.
Experiment: qHTS Assay for Lipid Storage Modulators in Drosophila S3 Cells;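 as to cell number change: cells counted by Cell Tracker Red CMTPX staining in the red channel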
Conditions: BODIPY lipid droplet fluorescence, 18-24 h; for cell number change: measured here: cell count max response, cells fed with added oleic acid
Procedure, shortened: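 Drosophila S3 cells got compounds at several concentrations plus oleic acid (400 uM solution). Laser-scanning cytometry with 488 nm excitation read lipid droplets at 500-530 nm and cells at 575-640 nm. Percent activity was relative to 20 uM Triacsin C.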

[1] = measured here: lipid fluorescence (Fed channel) AC50, cells fed with added oleic acid
[2] = measured here: cell number channel AC50, cells fed with added oleic acid

Row | Compound | cell number change [%] | AC50 [1] | AC50 [2]
1 | CC(=O)c1cccc(NC(=O)C2CCN(S(C)(=O)=O)CC2)c1 | -18.4 | 0.82 µM [falling, single point] | –
2 | CCOC(=O)/C=C1\SCC(=O)N1Cc1nnc(-c2ccccc2Br)o1 | -8.45 | 3.66 µM [rising, full curve] | –
3 | CCCc1cc(=O)[nH]c(SCC(=O)Nc2ccc(OC(F)F)cc2)n1 | 3.43 | 2.31 µM [falling, partial curve, poor fit] | –
4 | COc1cc(OC)cc(C(=O)NNC(=O)c2ccc(-n3cncn3)c([N+](=O)[O-])c2)c1 | 39 | – | 13 µM [rising, single point]
5 | CCn1ncc(Br)c1C(=O)Nc1sc2c(c1C(N)=O)CCC2 | – | 0.103 µM [falling, full curve, poor fit] | –
6 | COc1ccc(-c2nc(=S)[nH][nH]2)cc1OC | 7.94 | – | 6.51 µM [rising, single point]
7 | O=C(CNC(=O)c1cnccc1C(F)(F)F)c1cccc(Cl)c1 | 0.196 | 1.16 µM [rising, partial curve, poor fit] | –
8 | CCC(CC)NC(=O)CSc1ccc(S(=O)(=O)N2CCCCC2)cn1 | 75 | – | 29.1 µM [rising, single point]
9 | COc1ccc(N2CSC3=C(C#N)C(c4cccc(OC)c4OC)CC(=O)N3C2)cc1 (configuration not stated) | -16.5 | 6.51 µM [rising, partial curve, poor fit] | –
10 | Cc1ccc(C)c(C(=O)N(Cc2nc(-c3ccc(Cl)cc3)no2)C(C)C)c1 | 6.5 | 0.13 µM [rising, full curve, poor fit] | 3.26 µM [rising, single point]
11 | COc1cc([N+](=O)[O-])ccc1NC(=S)Nc1cc(C(=O)OC(C)C)cc(C(=O)OC(C)C)c1 | -15 | 29.1 µM [falling, single point] | –
12 | COc1cc(C2NC(=O)NC(C)=C2C(=O)OCc2ccc(C)cc2)cc(OC)c1O (configuration not stated) | 14.3 | 16.4 µM [rising, single point] | –
13 | COc1ccc(Br)c(C(=O)OCC(=O)NC2CC2)c1 | 24.4 | 23.1 µM [falling, single point] | –
14 | Cc1c(Cc2ccccc2)c(=O)oc2c(CN(C)C)c(O)c(Cl)cc12 | -32.7 | 29.1 µM [falling, single point] | –
15 | COc1ccccc1C(=O)N(Cc1ccc(Cl)cc1)C1CCS(=O)(=O)C1 (configuration not stated) | – | 9.2 µM [falling, partial curve] | –
16 | COc1cc2c(cc1OC)CN(c1ccc(F)cc1[N+](=O)[O-])CC2 | 16.2 | 0.411 µM [rising, full curve, poor fit] | –
17 | O=C(COC(=O)CNC(=O)C1CCCCC1)Nc1ccc(Cl)cc1F | -10 | – | 0.164 µM [rising, full curve, poor fit]
18 | O=C(Cn1cnc2cc([N+](=O)[O-])ccc2c1=O)NC(c1ccccc1)c1ccccc1 | 43.9 | 6.51 µM [falling, single point] | 29.1 µM [rising, single point]

Ordered by count of non-hydrogen atoms (smallest number first): three of the compounds above.
Row | Compound | cell number change [%] | AC50 [1] | AC50 [2]
16 | COc1cc2c(cc1OC)CN(c1ccc(F)cc1[N+](=O)[O-])CC2 | 16.2 | 0.411 µM [rising, full curve, poor fit] | –
14 | Cc1c(Cc2ccccc2)c(=O)oc2c(CN(C)C)c(O)c(Cl)cc12 | -32.7 | 29.1 µM [falling, single point] | –
18 | O=C(Cn1cnc2cc([N+](=O)[O-])ccc2c1=O)NC(c1ccccc1)c1ccccc1 | 43.9 | 6.51 µM [falling, single point] | 29.1 µM [rising, single point]

(further entries)

Row | Compound | cell number change [%] | AC50 [1] | AC50 [2]
19 | Cc1ccc(-c2[nH]nc3c2C(c2ccsc2)C(C#N)=C(N)O3)cc1 (configuration not stated) | 4.68 | 6.51 µM [rising, partial curve] | 0.291 µM [rising, partial curve, poor fit]
20 | Cc1cccc(N(CC(=O)NCc2ccco2)C(=O)CCC(=O)Nc2ccccn2)c1C | -4.27 | – | –
21 | COc1ccc(C(=O)NN=C(Cc2ccccc2)Cc2ccccc2)cc1OC | -16.8 | 3.66 µM [rising, single point] | –
22 | Cc1ccc(S(=O)(=O)NCCC(=O)NNC(=O)c2ccccc2Cl)cc1C | 17.9 | 13 µM [rising, single point] | –
23 | Cc1ccc(S(=O)(=O)Nc2c(NC3CCCCC3)c3ccccc3oc2=O)cc1 | -38.4 | 6.51 µM [falling, single point] | 0.0082 µM [falling, full curve, poor fit]
24 | CCCN=C1NC(=O)C(CC(=O)NCCc2ccccc2)S1 (configuration not stated) | -66.5 | 4.11 µM [falling, partial curve, poor fit] | 16.4 µM [falling, partial curve]
25 | Oc1ccc(N=Nc2n[nH]c(-c3ccc(Cl)cc3)n2)cc1 | 6.32 | 0.00411 µM [rising, full curve, poor fit] | –
26 | CC(C)c1ccc(NC(=O)C2CC2c2ccccc2)cc1 (configuration not stated) | -31.6 | 29.1 µM [falling, single point] | 29.1 µM [falling, single point]
27 | O=C1NC(=Nc2ccccc2Cl)S/C1=C\c1cc([N+](=O)[O-])ccc1O | 21.8 | 6.51 µM [rising, single point] | –
28 | Cc1cc(C(=O)OCC(=O)Nc2ccccc2[N+](=O)[O-])c2ccccc2n1 | -3.21 | 2.31 µM [falling, partial curve] | –
29 | Cc1cccc(NC(=O)c2cccc(S(=O)(=O)N3CCc4ccccc4C3)c2)n1 | -33.4 | 3.66 µM [rising, single point] | 18.4 µM [falling, partial curve, poor fit]
30 | CCN(CC(=O)Nc1c(F)cccc1F)C(=O)c1ccc(N2CCCC2=O)cc1 | -9.64 | – | –
31 | O=C(COC(=O)c1ccccc1Cl)NC1CCCCCCC1 | 6.06 | – | –
32 | CCOC(=O)Cc1csc(NC(=O)c2csc(C)c2)n1 | – | – | 3.26 µM [falling, partial curve]
33 | CN1C(=O)CC(C(=O)O)SC1=Nc1cc(Cl)cc(Cl)c1 (configuration not stated) | -11.5 | 13 µM [rising, partial curve] | –
34 | COc1cc(CN2CCC(CCC(=O)NC3CC3)CC2)cc(Cl)c1OC | 2.64 | 16.4 µM [rising, partial curve] | –
35 | C[C@H](NC(=O)C1CCN(S(=O)(=O)c2ccccc2)CC1)C(=O)NCc1cccc(Cl)c1 | – | 0.58 µM [rising, single point] | –
36 | O=C(Cc1ccc(F)cc1)c1ccc(O)cc1O | 54.8 | – | 20.6 µM [rising, single point]

Reference: PubChem BioAssay AID2685 (National Center for Advancing Translational Sciences (NCATS), 2010)
